Results are given as percent effect. The controls that fix the scale are not given in the record; negative values are as filed. Compounds were drawn at random from those tested, without regard to their results. Two or more numbers in one place are separate tests of the same structure; such repeats can differ widely.

Mtb cholesterol medium: 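Phenotypic screen: M. tuberculosis growth, cholesterol and DPPC medium, 4 days; the read-out is not stated. Concentration: 50 µM. Direction is inferred from retests: higher values go with more growth inhibition. Size under these conditions: about 69,000 compounds, about 370 of them at 50% or above in at least one test.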
Mtb glucose medium: 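Growth of Mycobacterium tuberculosis over 3 days (7H9 medium with glucose and tyloxapol); the read-out is not stated. Compounds at 50 µM. Direction is inferred from retests: higher values go with more growth inhibition. About 69,000 compounds were tested under these conditions; 1.1% (about 760) showed 50% or more at least once.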

{"smiles": "CCCSCC(=O)N1CCN(c2ccc(OC)cc2)CC1C", "stereo": "centres undefined", "Mtb cholesterol medium": 0.5818, "Mtb glucose medium": "9.698 & 9.572"}
{"smiles": "CCc1ncc(C(=O)N2CCN(C(=O)COc3ccccc3)CC2)cn1", "Mtb cholesterol medium": "6.544 & -7.809", "Mtb glucose medium": 20.22}
{"smiles": "COCCN(Cc1ccncc1)C(=O)CCSCc1ccc(F)cc1", "Mtb cholesterol medium": -3.241, "Mtb glucose medium": -12.89}
{"smiles": "CN(C)CCC1CCN(c2cc(N3CCCC3CO)ncn2)CC1", "stereo": "centres undefined", "Mtb cholesterol medium": -24.2, "Mtb glucose medium": -25.07}
{"smiles": "Cc1cc(C[C@@H]2COC[C@@H]2NC(=O)CN2CCCN(C)CC2)on1", "Mtb cholesterol medium": 12.18, "Mtb glucose medium": "8.402 & -6.995"}
{"smiles": "[H][C@@]12C[C@H](C)O[C@@]1([H])CCN(S(=O)(=O)c1ccc(F)cc1)C2", "Mtb cholesterol medium": 0.1789, "Mtb glucose medium": 5.087}
{"smiles": "O=C(O)C(F)(F)F.O=C(O)C(F)(F)F.[H][C@@]12COC[C@]1([H])[C@H](OCc1ccccn1)CN2Cc1ccc(F)cc1", "Mtb cholesterol medium": -1.668, "Mtb glucose medium": 1.031}
{"smiles": "OC1(CNc2cc(C(F)(F)F)nc3ccccc23)CCOCC1", "Mtb cholesterol medium": 7.805, "Mtb glucose medium": 10.57}
{"smiles": "Cc1ccc(CN2CCc3[nH]nc(C(=O)N4CCN(C)CC4)c3C2)o1.O=C(O)C(F)(F)F.O=C(O)C(F)(F)F.O=C(O)C(F)(F)F", "Mtb cholesterol medium": -3.581, "Mtb glucose medium": -26.73}
{"smiles": "Cc1ccc(CCCC(=O)N2CCN(C3CCCN(C)C3)CC2)s1", "stereo": "centres undefined", "Mtb cholesterol medium": -4.263, "Mtb glucose medium": -6.274}
{"smiles": "COc1cccc(-c2nnn(C3CCN(CC(F)(F)F)C3=O)n2)c1", "stereo": "centres undefined", "Mtb cholesterol medium": 5.89, "Mtb glucose medium": 14.14}
{"smiles": "O=C(O)C(F)(F)F.[H][C@@]12OCCN(CC3CCOCC3)[C@@]1([H])CC[C@H]2OCC", "Mtb cholesterol medium": 17.37, "Mtb glucose medium": -3.966}
{"smiles": "COCCCC(=O)Nc1cccnc1N1CCCCC1", "Mtb cholesterol medium": 17.7, "Mtb glucose medium": "26.17 & 5.721"}
{"smiles": "CC(C)OC[C@H]1CCC[C@]12CN(C(=O)C1CCOCC1)CCO2", "Mtb cholesterol medium": -21.77, "Mtb glucose medium": -4.042}
{"smiles": "CCc1ccccc1OC1CN(C(=O)c2ccnc(OC)c2)C1", "Mtb cholesterol medium": 66.86, "Mtb glucose medium": 5.493}
{"smiles": "O=C(c1n[nH]c2ccccc12)N1CCCC1c1noc(C2CC2)n1", "stereo": "centres undefined", "Mtb cholesterol medium": -0.9544, "Mtb glucose medium": -7.343}
{"smiles": "O=C(Nc1cccc(N2CCCC2)c1)C1CCCN1c1nccs1", "stereo": "centres undefined", "Mtb cholesterol medium": 0.8467, "Mtb glucose medium": -15}
{"smiles": "COc1nn(C)c2c1CCCN(C(=O)c1ccccc1)C2", "Mtb cholesterol medium": "10.54 & -2.23", "Mtb glucose medium": 8.409}
{"smiles": "CCN1C(=O)C(c2ccccc2)CC12CCN(CCO)CC2.O=C(O)C(F)(F)F", "stereo": "centres undefined", "Mtb cholesterol medium": 5.155, "Mtb glucose medium": -10.29}
{"smiles": "[H][C@]12CC[C@]([H])(CN(c3nc(C)c4ccc(S(C)(=O)=O)cc4n3)C1)N2", "Mtb cholesterol medium": 9.371, "Mtb glucose medium": 10.86}
{"smiles": "CCn1cc(CN2CCCN(C3Cc4ccccc4C3)CC2)cn1", "Mtb cholesterol medium": 20.25, "Mtb glucose medium": 20.02}
{"smiles": "COc1ccsc1C(=O)NC1CCN(c2ccc(C#N)cc2)CC1", "Mtb cholesterol medium": 13.71, "Mtb glucose medium": -0.1264}
{"smiles": "CCc1nnc2n1CCN(CC(=O)Nc1cc(C)nn1C)C2", "Mtb cholesterol medium": 6.791, "Mtb glucose medium": 24.99}
{"smiles": "CC(C)c1ccc(OCCC(=O)N(C)C)cc1", "Mtb cholesterol medium": 26.72, "Mtb glucose medium": "24.97 & 48.4"}
{"smiles": "CC1COCCN1C(=O)Nc1cnc2c(cnn2C(C)C)c1", "stereo": "centres undefined", "Mtb cholesterol medium": -0.7757, "Mtb glucose medium": "-3.119 & -22.65"}
{"smiles": "O=c1c(NCc2ccco2)c(NCC(O)CN2CCOCC2)c1=O", "stereo": "centres undefined", "Mtb cholesterol medium": 7.789, "Mtb glucose medium": -6.131}
{"smiles": "Cc1cnn(CC(C)NCc2ccc(C#N)cc2)c1", "stereo": "centres undefined", "Mtb cholesterol medium": "4.004 & 2.496", "Mtb glucose medium": 4.039}
{"smiles": "O=C1CC(c2ccccc2)c2c(n3ccsc3nc2=O)N1", "stereo": "centres undefined", "Mtb cholesterol medium": 13.49, "Mtb glucose medium": 18.92}
{"smiles": "[H][C@@]12COC[C@]1(COc1cccnc1)CN(C(=O)Cc1cccs1)C2", "Mtb cholesterol medium": "5.406 & -2.069", "Mtb glucose medium": 33.13}
{"smiles": "CC(C)C[C@@H](CO)n1cc(-c2cnc(-c3ccco3)nc2)nn1", "Mtb cholesterol medium": 3.52, "Mtb glucose medium": 0.09871}
{"smiles": "CC(C)c1cc(NCC2(N3CCOCC3)CCCCC2)ncn1", "Mtb cholesterol medium": -68.63, "Mtb glucose medium": -50.16}

3 of the entries, repeated:

Result for CN(C)CCC1CCN(c2cc(N3CCCC3CO)ncn2)CC1 (centres undefined) was Mtb cholesterol medium: -24.2%; Mtb glucose medium: -25.07%.
Result for CCc1ncc(C(=O)N2CCN(C(=O)COc3ccccc3)CC2)cn1 was Mtb cholesterol medium: 6.544% & -7.809%; Mtb glucose medium: 20.22%.
Result for O=c1c(NCc2ccco2)c(NCC(O)CN2CCOCC2)c1=O (centres undefined) was Mtb cholesterol medium: 7.789%; Mtb glucose medium: -6.131%.

Measurements from “University of Dundee, Small-Polar-MMV Screening Library” (2021), ChEMBL document CHEMBL3988442.